Data reported in the supplement of paper PMC10849652.
The list shows a part of the results. Residues, ends and D or L forms follow the SMILES beside them. *: point of attachment. Cbz = O=C(OCc1ccccc1)*

The chains behind the UniProt entries cited, without tags or fusion partners. Where a name states a change or a piece, a line headed by the entry shows the natural chain unless it says otherwise.
UniProt Q6P5X5: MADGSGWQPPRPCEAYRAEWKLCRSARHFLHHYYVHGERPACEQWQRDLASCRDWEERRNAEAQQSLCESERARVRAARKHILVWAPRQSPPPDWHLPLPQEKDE
UniProt Q13137: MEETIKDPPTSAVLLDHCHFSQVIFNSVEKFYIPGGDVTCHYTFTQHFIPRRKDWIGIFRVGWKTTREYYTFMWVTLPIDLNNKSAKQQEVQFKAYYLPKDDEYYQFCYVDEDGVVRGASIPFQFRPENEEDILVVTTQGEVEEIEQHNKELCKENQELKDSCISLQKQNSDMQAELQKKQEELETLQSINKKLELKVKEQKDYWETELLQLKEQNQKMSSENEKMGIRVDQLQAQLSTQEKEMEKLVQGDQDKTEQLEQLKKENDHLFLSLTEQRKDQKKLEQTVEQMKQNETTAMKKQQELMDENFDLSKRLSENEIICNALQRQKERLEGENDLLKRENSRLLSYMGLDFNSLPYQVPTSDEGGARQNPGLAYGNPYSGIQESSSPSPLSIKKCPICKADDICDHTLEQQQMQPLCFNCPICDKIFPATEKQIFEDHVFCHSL
UniProt Q13895: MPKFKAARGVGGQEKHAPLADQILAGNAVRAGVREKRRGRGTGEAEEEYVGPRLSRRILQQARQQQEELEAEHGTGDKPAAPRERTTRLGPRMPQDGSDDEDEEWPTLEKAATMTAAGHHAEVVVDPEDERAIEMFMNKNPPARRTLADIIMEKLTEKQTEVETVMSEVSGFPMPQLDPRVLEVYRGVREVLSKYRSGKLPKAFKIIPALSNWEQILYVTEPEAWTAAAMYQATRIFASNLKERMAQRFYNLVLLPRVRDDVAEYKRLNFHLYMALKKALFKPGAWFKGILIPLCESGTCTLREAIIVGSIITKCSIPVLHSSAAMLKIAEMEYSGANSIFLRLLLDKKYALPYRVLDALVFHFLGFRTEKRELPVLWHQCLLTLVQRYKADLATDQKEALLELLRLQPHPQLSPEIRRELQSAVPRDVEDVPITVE
UniProt O14523: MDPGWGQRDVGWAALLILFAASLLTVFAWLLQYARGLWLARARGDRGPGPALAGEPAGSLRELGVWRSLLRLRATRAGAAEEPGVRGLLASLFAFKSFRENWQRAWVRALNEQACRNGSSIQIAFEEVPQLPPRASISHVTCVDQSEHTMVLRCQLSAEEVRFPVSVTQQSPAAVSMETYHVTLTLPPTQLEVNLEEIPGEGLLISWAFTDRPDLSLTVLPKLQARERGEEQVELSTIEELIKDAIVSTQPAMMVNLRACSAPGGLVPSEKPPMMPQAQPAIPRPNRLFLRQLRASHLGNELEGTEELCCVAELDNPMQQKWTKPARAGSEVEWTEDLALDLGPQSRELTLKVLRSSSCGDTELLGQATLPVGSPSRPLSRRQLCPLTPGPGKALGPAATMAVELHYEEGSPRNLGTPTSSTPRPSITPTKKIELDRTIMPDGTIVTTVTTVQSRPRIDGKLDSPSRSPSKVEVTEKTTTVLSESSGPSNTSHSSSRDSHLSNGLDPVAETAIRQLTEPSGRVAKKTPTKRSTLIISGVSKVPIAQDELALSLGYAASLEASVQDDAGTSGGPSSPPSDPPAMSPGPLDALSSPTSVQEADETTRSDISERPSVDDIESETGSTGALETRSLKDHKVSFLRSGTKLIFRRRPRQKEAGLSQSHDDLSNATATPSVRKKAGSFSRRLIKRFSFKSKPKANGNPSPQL
UniProt Q9BV19: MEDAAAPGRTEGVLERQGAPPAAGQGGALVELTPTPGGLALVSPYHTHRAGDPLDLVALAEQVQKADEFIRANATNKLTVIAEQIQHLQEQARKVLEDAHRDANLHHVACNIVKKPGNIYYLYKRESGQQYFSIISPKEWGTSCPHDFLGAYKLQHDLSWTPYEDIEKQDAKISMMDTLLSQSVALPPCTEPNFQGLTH
UniProt P35219: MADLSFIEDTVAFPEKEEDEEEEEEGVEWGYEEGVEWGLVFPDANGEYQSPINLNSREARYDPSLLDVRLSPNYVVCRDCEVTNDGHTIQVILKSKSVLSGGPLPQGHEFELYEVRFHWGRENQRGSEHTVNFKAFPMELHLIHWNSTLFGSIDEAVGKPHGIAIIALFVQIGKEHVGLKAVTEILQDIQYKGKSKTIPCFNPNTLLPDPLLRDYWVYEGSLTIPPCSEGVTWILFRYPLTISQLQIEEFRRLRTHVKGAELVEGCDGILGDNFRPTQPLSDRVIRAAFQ
UniProt Q96RR4, whole entry, looked up: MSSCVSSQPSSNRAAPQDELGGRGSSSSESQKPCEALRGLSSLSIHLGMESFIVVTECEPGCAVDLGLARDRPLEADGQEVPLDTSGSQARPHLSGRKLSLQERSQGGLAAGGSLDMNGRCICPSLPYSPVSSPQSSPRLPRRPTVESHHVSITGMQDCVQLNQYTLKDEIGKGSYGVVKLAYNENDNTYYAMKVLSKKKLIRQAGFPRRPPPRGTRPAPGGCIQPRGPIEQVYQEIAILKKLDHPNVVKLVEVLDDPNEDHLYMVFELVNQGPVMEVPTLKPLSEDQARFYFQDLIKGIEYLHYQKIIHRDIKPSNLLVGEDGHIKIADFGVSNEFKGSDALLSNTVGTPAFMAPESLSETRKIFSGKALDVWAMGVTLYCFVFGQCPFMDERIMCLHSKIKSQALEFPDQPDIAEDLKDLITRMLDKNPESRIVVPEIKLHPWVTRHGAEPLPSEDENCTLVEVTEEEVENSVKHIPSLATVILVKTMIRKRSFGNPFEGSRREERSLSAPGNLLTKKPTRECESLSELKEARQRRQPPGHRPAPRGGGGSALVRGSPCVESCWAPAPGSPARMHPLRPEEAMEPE
UniProt P0C0L4: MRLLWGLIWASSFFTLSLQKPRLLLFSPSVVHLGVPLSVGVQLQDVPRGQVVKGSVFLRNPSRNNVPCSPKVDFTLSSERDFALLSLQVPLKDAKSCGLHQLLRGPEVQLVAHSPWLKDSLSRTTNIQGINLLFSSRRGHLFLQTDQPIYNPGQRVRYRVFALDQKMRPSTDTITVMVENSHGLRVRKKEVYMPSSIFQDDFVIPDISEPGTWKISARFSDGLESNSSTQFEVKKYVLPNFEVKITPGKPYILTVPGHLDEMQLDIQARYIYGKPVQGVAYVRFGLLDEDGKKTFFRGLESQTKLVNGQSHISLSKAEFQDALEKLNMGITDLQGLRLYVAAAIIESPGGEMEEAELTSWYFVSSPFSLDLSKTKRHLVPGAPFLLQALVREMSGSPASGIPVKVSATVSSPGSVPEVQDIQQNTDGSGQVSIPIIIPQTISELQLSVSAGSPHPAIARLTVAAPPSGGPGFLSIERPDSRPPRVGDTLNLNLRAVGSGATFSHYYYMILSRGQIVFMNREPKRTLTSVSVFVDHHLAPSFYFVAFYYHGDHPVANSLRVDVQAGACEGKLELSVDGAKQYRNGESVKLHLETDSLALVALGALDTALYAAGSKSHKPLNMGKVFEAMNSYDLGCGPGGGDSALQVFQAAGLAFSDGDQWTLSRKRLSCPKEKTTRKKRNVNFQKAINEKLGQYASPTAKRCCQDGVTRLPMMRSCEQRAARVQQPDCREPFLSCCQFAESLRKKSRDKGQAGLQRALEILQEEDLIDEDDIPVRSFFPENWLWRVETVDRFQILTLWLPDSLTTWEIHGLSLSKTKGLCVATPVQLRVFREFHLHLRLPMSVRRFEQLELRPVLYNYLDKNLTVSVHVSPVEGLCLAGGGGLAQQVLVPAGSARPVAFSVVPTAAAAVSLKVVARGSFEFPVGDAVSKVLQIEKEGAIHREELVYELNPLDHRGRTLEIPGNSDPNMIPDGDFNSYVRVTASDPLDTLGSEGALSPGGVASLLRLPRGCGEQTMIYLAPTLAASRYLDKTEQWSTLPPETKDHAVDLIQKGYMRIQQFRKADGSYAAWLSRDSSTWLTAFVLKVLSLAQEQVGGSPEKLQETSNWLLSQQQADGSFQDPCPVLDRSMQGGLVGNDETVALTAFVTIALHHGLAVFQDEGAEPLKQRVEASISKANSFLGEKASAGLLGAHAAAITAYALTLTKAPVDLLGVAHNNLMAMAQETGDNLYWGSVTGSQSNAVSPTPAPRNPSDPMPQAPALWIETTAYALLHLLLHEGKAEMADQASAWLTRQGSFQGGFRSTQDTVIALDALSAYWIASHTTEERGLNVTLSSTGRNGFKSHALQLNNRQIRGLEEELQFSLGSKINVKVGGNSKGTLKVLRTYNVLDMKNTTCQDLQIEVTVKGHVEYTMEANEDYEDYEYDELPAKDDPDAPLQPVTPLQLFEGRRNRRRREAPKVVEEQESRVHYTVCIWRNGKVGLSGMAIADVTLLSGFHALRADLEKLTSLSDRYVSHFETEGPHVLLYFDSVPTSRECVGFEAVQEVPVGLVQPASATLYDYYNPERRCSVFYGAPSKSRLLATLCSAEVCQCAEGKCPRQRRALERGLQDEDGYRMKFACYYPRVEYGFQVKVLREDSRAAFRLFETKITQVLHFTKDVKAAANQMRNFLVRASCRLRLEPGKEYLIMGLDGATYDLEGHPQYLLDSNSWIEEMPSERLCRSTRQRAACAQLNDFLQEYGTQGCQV
UniProt Q9H9S4: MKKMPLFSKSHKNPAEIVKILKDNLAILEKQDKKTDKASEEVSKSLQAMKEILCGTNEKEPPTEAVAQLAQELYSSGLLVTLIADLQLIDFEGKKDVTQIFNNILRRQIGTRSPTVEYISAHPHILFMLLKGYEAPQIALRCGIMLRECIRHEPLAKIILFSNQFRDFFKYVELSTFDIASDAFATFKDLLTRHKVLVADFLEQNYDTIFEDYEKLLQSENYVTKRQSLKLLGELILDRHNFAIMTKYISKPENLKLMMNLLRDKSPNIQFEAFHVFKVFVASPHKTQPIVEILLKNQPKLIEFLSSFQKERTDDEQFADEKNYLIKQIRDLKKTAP
UniProt Q5T5Y3: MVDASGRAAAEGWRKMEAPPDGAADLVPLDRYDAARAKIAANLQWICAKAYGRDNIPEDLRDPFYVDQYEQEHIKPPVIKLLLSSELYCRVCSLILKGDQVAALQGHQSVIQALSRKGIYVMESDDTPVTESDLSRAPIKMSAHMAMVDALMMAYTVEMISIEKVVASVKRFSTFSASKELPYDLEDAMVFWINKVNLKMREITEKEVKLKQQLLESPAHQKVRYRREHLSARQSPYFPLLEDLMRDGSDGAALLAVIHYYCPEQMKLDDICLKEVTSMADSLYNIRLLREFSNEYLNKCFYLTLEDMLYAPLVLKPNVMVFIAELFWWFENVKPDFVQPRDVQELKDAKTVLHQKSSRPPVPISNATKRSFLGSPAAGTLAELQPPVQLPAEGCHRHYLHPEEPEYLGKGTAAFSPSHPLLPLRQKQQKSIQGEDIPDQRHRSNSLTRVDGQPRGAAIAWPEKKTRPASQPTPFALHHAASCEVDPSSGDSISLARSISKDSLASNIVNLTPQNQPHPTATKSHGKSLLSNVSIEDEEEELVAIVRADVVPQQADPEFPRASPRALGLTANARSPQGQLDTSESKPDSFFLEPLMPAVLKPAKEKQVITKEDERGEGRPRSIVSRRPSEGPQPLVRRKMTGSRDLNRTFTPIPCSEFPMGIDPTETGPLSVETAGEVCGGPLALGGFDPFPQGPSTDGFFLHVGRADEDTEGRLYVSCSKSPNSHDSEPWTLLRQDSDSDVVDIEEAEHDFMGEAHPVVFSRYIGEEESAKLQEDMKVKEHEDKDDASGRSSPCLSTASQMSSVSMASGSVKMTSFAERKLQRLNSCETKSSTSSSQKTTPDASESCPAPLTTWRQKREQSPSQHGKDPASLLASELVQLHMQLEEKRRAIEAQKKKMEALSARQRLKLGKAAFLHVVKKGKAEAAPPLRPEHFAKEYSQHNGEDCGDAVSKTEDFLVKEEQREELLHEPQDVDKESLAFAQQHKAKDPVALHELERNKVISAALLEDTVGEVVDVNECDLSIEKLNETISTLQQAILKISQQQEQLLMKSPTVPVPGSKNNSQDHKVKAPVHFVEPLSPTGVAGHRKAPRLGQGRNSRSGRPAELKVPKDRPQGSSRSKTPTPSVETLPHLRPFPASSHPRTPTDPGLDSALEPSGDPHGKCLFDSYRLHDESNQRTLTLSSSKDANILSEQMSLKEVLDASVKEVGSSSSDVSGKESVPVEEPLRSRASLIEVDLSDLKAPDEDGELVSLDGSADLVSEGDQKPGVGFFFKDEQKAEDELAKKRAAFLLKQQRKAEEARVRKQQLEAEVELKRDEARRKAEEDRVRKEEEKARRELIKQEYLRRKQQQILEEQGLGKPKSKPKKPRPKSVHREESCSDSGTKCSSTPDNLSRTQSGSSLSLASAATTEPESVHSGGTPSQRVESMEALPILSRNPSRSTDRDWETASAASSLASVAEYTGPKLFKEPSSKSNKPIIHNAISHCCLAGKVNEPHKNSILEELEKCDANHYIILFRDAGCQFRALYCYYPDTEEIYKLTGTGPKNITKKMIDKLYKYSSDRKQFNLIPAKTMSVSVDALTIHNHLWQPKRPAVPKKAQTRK

Key:
Assay in all cases: log2 fold change, soluble protein after heating vs DMSO (PISA); higher = thermal stabilisation; K562 cells, 10 uM, 30 min; active = over 0.2 and 3.5 SD of the protein, either way, in both replicates (recomputed)
[1] = compound: C#Cc1cccc(Nc2ncnc3cc(OCCOC)c(OCCOC)cc23)c1 [erlotinib]
Method in brief: (§1)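 Aliquots of K562 cells (2×10^6 cells/mL) treated with 10 μM compound for 30 min were heated for 3 min over 48°C-58°C. After pooling and extraction in PBS with 0.5% NP-40 at 4°C, soluble protein from a 21,000xg, 90 min spin was quantified by TMTpro 16plex LC-MS/MS with channel sums equalised. Thermal stability is expressed against control samples, from duplicates, as a log2 fold change.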

[2] = compound: C/C(=N\NC(=O)C1=CC(=CC=C1)S(=O)(=O)N2CCOCC2)/C3=C(C=CC(=C3)Cl)O
Method in brief: as §1

[3] = compound: C1=CC(=C(C=C1Cl)C2=NC3=NC=CN=C3C(=N2)NC4=CC=NC=C4)F
Method in brief: as §1

[4] = compound: C1=CC(=CC=C1C2=NC3=C(N2)C=C(C=C3)C(=O)N)OC4=CC=C(C=C4)Cl
Method in brief: as §1

[5] = compound: C1=CC2=C(C=CC(=C2)/C=C\3/C(=O)NC(=NCC4=CC=CS4)S3)N=C1
Method in brief: as §1

[6] = compound: C1=CC2=NC=CN=C2C=C1/C=C/3\C(=O)NC(=O)S3
Method in brief: as §1

[7] = compound: C1=CC=C(C=C1)C2=NC(=C(N2)C3=CC=NC=C3)C4=CC(=C(C=C4)Cl)O
Method in brief: as §1

[8] = compound: C1=CC=C2C(=C1)C3=NNC4=CC=CC(=C43)C2=O
Method in brief: as §1

[9] = compound: C1CCN(C1)C(=O)NC2=CC=CC(=C2)NC3=NC=C(C(=N3)NCCC4=CN=CN4)Br
Method in brief: as §1

[10] = compound: C1CN(CCC1(CC2=CC=C(C=C2)Cl)N)C3=NC=NC4=C3C=CN4
Method in brief: as §1

[11] = compound: C1COCCN1CCN2C3=CC=CC=C3N=C2NC(=O)C4=CC(=CC=C4)[N+](=O)[O-] [IRAK-1-4 Inhibitor I]
Method in brief: as §1

[12] = compound: C=CC(=O)N1CCC[C@@H](n2nc(-c3ccc(Oc4ccccc4)cc3)c3c(N)ncnc32)C1 [ibrutinib]
Method in brief: as §1

[13] = compound: CC(=O)c1cnc2ccc(-c3cc(Cl)c(O)c(Cl)c3)nc2c1N[C@H]1CC[C@H](CN(C)C)CC1
Method in brief: as §1

[14] = compound: CC(C)(C)Cn1c(N)nc2ccc(-c3[nH]c(C(C)(C)C)nc3-c3ccc(F)cc3)nc21 [ralimetinib]
Method in brief: as §1

[15] = compound: CC(C)(O)CC(=O)NCCn1ccc2ncnc(Nc3ccc(Oc4cccc(C(F)(F)F)c4)c(Cl)c3)c21
Method in brief: as §1

[16] = compound: CC(C)C1=C2N=C(C=C(N2N=C1)NCC3=CC=CC=C3)NCCCCCCN
Method in brief: as §1

[17] = compound: CC(C)C[C@@H](C=O)NC(=O)[C@H](CC(C)C)NC(=O)[C@H](CC(C)C)NC(=O)OCc1ccccc1
Method in brief: as §1

[18] = compound: CC(C)N(C[C@H]1O[C@@H](n2cnc3c(N)ncnc32)[C@H](O)[C@@H]1O)[C@H]1C[C@@H](CCc2nc3cc(C(C)(C)C)ccc3[nH]2)C1 [pinometostat]
Method in brief: as §1

[19] = compound: CC1=C(C2=C(C=C1)C(=O)C3=CC=CC=C3N2CCCN)C
Method in brief: as §1

[20] = compound: CC1=C(C(CC(=O)N1)C2=CC=C(C=C2)C(F)(F)F)C(=O)NC3=C(C=C4C(=C3)C=NN4)F
Method in brief: as §1

| Target | log2 fold change [1] | log2 fold change [2] | log2 fold change [3] | log2 fold change [4] | log2 fold change [5] | log2 fold change [6] | log2 fold change [7] | log2 fold change [8] | log2 fold change [9] | log2 fold change [10] | log2 fold change [11] | log2 fold change [12] | log2 fold change [13] | log2 fold change [14] | log2 fold change [15] | log2 fold change [16] | log2 fold change [17] | log2 fold change [18] | log2 fold change [19] | log2 fold change [20] |
| --- | --- | --- | --- | --- | --- | --- | --- | --- | --- | --- | --- | --- | --- | --- | --- | --- | --- | --- | --- | --- |
| BZW1 isoform 3 (UniProt Q7L1Q6) | inactive: 0.049 | inactive: 0.176 | inactive: -0.001 | inactive: -0.088 | inactive: 0.054 | inactive: 0.019 | inactive: 0.042 | inactive: 0.039 | inactive: -0.059 | inactive: -0.101 | inactive: -0.118 | inactive: -0.123 | inactive: 0.005 | inactive: 0.049 | inactive: -0.296 | active: -0.422 | inactive: 0.007 | inactive: 0.123 | inactive: 0.068 | – |
| C22orf39 (UniProt Q6P5X5) | inactive: -0.256 | inactive: -0.02 | inactive: -0.018 | inactive: 0.02 | inactive: -0.014 | inactive: 0.051 | inactive: -0.023 | inactive: -0.004 | inactive: 0.037 | inactive: 0.02 | inactive: 0.12 | inactive: 0.033 | inactive: -0.069 | inactive: -0.104 | inactive: 0.018 | active: -0.587 | inactive: 0.126 | inactive: 0.035 | inactive: 0.213 | – |
| CALCOCO2 isoform 4 (UniProt Q13137) | inactive: -0.081 | inactive: 0.018 | inactive: -0.08 | inactive: 0.059 | inactive: 0.022 | inactive: -0.043 | inactive: -0.003 | inactive: -0.057 | inactive: -0.016 | inactive: -0.052 | inactive: 0.004 | inactive: -0.016 | inactive: -0.09 | inactive: 0.045 | inactive: -0.005 | active: -0.599 | inactive: 0.115 | inactive: 0.054 | inactive: -0.065 | – |
| BYSL (UniProt Q13895) | inactive: -0.009 | inactive: 0.014 | inactive: -0.05 | inactive: -0.006 | inactive: -0.046 | inactive: 0.027 | inactive: -0.018 | inactive: 0.075 | inactive: -0.042 | inactive: -0.289 | inactive: -0.115 | inactive: -0.054 | inactive: 0.043 | inactive: 0.051 | inactive: -0.11 | inactive: -0.109 | inactive: 0.092 | inactive: 0.118 | active: -0.495 | – |
| C2CD2L (UniProt O14523) | inactive: -0.007 | inactive: 0.012 | inactive: 0.013 | inactive: 0.011 | inactive: 0.043 | inactive: 0.045 | inactive: -0.016 | inactive: -0.081 | inactive: 0.027 | inactive: 0.042 | inactive: 0.029 | inactive: 0.046 | inactive: -0.094 | inactive: -0.035 | inactive: -0.025 | inactive: -0.085 | inactive: 0.066 | inactive: 0.028 | inactive: 0.083 | inactive: -0.002 |
| BUB1B isoform 3 (UniProt O60566) | inactive: 0.019 | inactive: 0.054 | inactive: -0.049 | inactive: -0.031 | inactive: 0.157 | inactive: 0.052 | inactive: 0.037 | inactive: -0.038 | inactive: -0.031 | inactive: -0.095 | inactive: -0.092 | inactive: -0.039 | inactive: -0.023 | inactive: 0.106 | inactive: -0.089 | inactive: -0.098 | inactive: 0.09 | inactive: 0.11 | inactive: 0.017 | – |
| C1orf50 (UniProt Q9BV19) | inactive: 0.12 | inactive: -0.048 | inactive: 0.177 | inactive: 0.244 | inactive: 0.093 | inactive: 0.028 | inactive: 0.015 | inactive: 0.003 | inactive: 0.041 | inactive: -0.09 | – | inactive: -0.229 | inactive: -0.113 | inactive: 0.016 | inactive: -0.086 | inactive: 0.063 | inactive: 0.024 | – | inactive: 0.236 | inactive: 0.054 |
| CAMK2G isoform 6 (UniProt Q13555) | inactive: -0.003 | inactive: -0.096 | inactive: -0.047 | inactive: -0.098 | inactive: 0.054 | inactive: 0.009 | inactive: 0.055 | inactive: 0.08 | inactive: -0.02 | inactive: 0.015 | inactive: -0.008 | inactive: 0.004 | inactive: 0.181 | inactive: 0.118 | inactive: 0.039 | inactive: -0.016 | inactive: 0.038 | inactive: 0.067 | inactive: 0.063 | – |
| BZW2 (UniProt Q9Y6E2) | inactive: -0.018 | inactive: 0.106 | inactive: 0.054 | inactive: -0.016 | inactive: 0.033 | inactive: 0.026 | inactive: 0.022 | inactive: 0.013 | inactive: 0.037 | inactive: -0.021 | inactive: 0.04 | inactive: -0.043 | inactive: 0 | inactive: -0.016 | inactive: -0.121 | inactive: -0.163 | inactive: -0.003 | inactive: -0.011 | inactive: 0.014 | – |
| CA8 (UniProt P35219) | inactive: -0.045 | inactive: 0.051 | inactive: 0.092 | inactive: -0.017 | inactive: 0.054 | inactive: 0.019 | inactive: 0.118 | inactive: -0.02 | inactive: -0.054 | inactive: 0.011 | inactive: 0.027 | inactive: 0.004 | inactive: -0.091 | inactive: 0.033 | inactive: -0.036 | inactive: -0.056 | inactive: 0.011 | inactive: -0.008 | inactive: -0.046 | – |
| CAMKK2 (UniProt Q96RR4) | inactive: -0.091 | inactive: -0.047 | inactive: -0.026 | inactive: -0.232 | inactive: -0.059 | inactive: -0.081 | inactive: -0.122 | inactive: -0.037 | inactive: -0.19 | inactive: 0.23 | inactive: -0.05 | inactive: -0.069 | inactive: 0.131 | inactive: -0.117 | inactive: 0.002 | inactive: 0.069 | inactive: -0.052 | inactive: 0.142 | inactive: -0.025 | – |
| CALB1 (UniProt P05937) | inactive: -0.011 | inactive: -0.001 | inactive: 0.067 | inactive: 0.032 | inactive: -0.033 | inactive: 0.055 | inactive: -0.01 | inactive: 0.027 | inactive: 0.019 | inactive: -0.026 | inactive: 0.016 | inactive: -0.033 | inactive: 0.017 | inactive: -0.078 | inactive: -0.052 | active: -0.245 | inactive: -0.017 | inactive: -0.043 | inactive: -0.148 | – |
| C11orf24 (UniProt Q96F05) | inactive: 0.302 | inactive: -0.052 | inactive: -0.062 | inactive: 0.009 | inactive: 0.115 | inactive: 0.182 | inactive: 0.04 | inactive: 0.024 | – | – | inactive: 0.164 | inactive: -0.061 | inactive: -0.304 | inactive: 0.118 | inactive: 0.194 | inactive: 0.324 | inactive: 0.026 | inactive: 0.148 | – | – |
| C4A (UniProt P0C0L4) | inactive: -0.117 | inactive: -0.05 | inactive: 0.024 | inactive: 0.078 | inactive: 0.12 | inactive: -0.032 | inactive: 0.002 | inactive: -0.132 | inactive: 0.072 | inactive: 0.104 | inactive: 0.017 | inactive: 0.08 | inactive: -0.01 | inactive: -0.083 | inactive: 0.226 | inactive: 0.111 | inactive: 0.01 | inactive: -0.11 | inactive: -0.192 | – |
| C4orf33 (UniProt Q8N1A6) | inactive: -0.026 | inactive: 0.023 | inactive: 0.052 | inactive: 0.138 | inactive: 0.072 | active: -0.287 | inactive: -0.092 | inactive: 0.016 | inactive: 0.017 | inactive: 0.06 | inactive: 0.038 | inactive: 0.137 | inactive: -0.049 | inactive: -0.073 | inactive: 0.005 | inactive: -0.076 | inactive: 0.032 | inactive: 0 | inactive: -0.03 | – |
| CAB39L (UniProt Q9H9S4) | inactive: -0.026 | inactive: -0.001 | inactive: -0.088 | inactive: 0.065 | inactive: 0.042 | inactive: 0.015 | inactive: 0.007 | inactive: -0.117 | inactive: -0.068 | inactive: -0.306 | inactive: 0.018 | inactive: 0.001 | inactive: -0.126 | inactive: 0.057 | inactive: -0.152 | inactive: -0.024 | inactive: 0.032 | inactive: 0.102 | inactive: -0.483 | – |
| CAMSAP1 isoform 3 (UniProt Q5T5Y3) | inactive: -0.084 | inactive: 0.023 | inactive: -0.014 | inactive: -0.013 | inactive: 0.058 | inactive: 0.007 | inactive: 0.035 | inactive: -0.078 | inactive: -0.016 | inactive: 0.006 | inactive: -0.076 | inactive: -0.069 | inactive: -0.29 | inactive: -0.031 | inactive: -0.062 | inactive: -0.078 | inactive: 0.031 | inactive: 0.121 | inactive: 0.108 | – |

Looked up one by one from above (2):

| Target | log2 fold change [1] | log2 fold change [2] | log2 fold change [3] | log2 fold change [4] | log2 fold change [5] | log2 fold change [6] | log2 fold change [7] | log2 fold change [8] | log2 fold change [9] | log2 fold change [10] | log2 fold change [11] | log2 fold change [12] | log2 fold change [13] | log2 fold change [14] | log2 fold change [15] | log2 fold change [16] | log2 fold change [17] | log2 fold change [18] | log2 fold change [19] | log2 fold change [20] |
| --- | --- | --- | --- | --- | --- | --- | --- | --- | --- | --- | --- | --- | --- | --- | --- | --- | --- | --- | --- | --- |
| C4orf33 (UniProt Q8N1A6) | inactive: -0.026 | inactive: 0.023 | inactive: 0.052 | inactive: 0.138 | inactive: 0.072 | active: -0.287 | inactive: -0.092 | inactive: 0.016 | inactive: 0.017 | inactive: 0.06 | inactive: 0.038 | inactive: 0.137 | inactive: -0.049 | inactive: -0.073 | inactive: 0.005 | inactive: -0.076 | inactive: 0.032 | inactive: 0 | inactive: -0.03 | – |
| BZW2 (UniProt Q9Y6E2) | inactive: -0.018 | inactive: 0.106 | inactive: 0.054 | inactive: -0.016 | inactive: 0.033 | inactive: 0.026 | inactive: 0.022 | inactive: 0.013 | inactive: 0.037 | inactive: -0.021 | inactive: 0.04 | inactive: -0.043 | inactive: 0 | inactive: -0.016 | inactive: -0.121 | inactive: -0.163 | inactive: -0.003 | inactive: -0.011 | inactive: 0.014 | – |
